Data on 6 molecules can be found in paper doi:10.1101/2020.12.31.424863.

Residue numbers refer to the chain shown, from its start. Names may count otherwise. No constants are given. Whether binding was seen depends on the method and setting. For part of these data: Binding seen in cells or lysates may run through a third protein. Some results given as binding are weak or reduced against the parent protein; the word gives no strength. For part of these data: Sequences can lack the tags named with a protein.

Assay [1] concerns the target T1, Nse1 (subunit of the budding yeast Smc5/6 holo-complex) (budding yeast) (UniProt Q07913).
T1 sequence: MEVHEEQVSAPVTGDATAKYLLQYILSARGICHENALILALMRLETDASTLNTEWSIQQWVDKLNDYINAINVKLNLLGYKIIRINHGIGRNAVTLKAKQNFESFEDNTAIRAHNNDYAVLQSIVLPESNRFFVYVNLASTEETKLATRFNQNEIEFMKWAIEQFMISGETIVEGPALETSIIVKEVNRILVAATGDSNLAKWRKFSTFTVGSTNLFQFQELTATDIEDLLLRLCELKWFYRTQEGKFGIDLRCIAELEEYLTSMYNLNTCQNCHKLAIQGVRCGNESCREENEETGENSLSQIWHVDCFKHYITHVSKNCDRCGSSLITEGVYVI
In words: cross-linking.

The target of assay [2] is T2, Nse4 (subunit of the budding yeast Smc5/6 holo-complex) (budding yeast) (UniProt P43124).
T2 sequence: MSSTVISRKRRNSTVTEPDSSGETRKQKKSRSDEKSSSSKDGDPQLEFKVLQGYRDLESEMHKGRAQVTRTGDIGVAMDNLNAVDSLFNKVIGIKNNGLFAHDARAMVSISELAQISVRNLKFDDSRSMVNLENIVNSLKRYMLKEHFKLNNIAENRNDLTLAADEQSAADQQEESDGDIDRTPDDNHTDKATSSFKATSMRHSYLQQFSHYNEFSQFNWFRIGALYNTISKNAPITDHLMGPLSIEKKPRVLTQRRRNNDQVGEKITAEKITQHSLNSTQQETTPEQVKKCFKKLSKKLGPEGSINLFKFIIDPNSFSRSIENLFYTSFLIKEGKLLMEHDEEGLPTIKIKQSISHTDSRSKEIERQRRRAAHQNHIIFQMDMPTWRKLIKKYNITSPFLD
The experiment in a line: cross-linking.

Assay [3] deals with T3, Nse3 (subunit of the budding yeast Smc5/6 holo-complex) (budding yeast) (UniProt Q05541).
T3 sequence: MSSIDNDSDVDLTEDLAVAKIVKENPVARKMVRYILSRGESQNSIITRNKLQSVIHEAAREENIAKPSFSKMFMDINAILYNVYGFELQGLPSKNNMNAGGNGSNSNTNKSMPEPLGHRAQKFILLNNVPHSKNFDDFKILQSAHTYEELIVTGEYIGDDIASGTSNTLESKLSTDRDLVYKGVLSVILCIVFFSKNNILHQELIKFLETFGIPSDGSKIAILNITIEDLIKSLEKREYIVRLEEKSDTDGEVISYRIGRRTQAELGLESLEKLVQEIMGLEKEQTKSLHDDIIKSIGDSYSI
In words: cross-linking.

Assay [4] addresses T4, GST-tagged Nse6, wild type (budding yeast) (UniProt P40026).
T4 sequence: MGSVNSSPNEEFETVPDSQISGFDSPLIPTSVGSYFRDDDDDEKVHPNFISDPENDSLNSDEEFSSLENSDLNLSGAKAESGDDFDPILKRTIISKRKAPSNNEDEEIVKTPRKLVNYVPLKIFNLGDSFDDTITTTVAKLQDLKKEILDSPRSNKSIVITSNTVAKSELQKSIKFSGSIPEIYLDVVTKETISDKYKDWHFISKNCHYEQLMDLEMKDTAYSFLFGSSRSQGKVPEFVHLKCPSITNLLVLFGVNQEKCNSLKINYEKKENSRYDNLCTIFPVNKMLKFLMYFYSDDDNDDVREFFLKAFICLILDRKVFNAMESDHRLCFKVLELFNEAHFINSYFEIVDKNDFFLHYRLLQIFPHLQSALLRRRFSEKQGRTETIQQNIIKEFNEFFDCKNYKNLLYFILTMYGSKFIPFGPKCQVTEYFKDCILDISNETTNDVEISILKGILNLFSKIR
In words: pull-down.

Assay [5] addresses T5, GST-tagged Nse6-S326W (region II mutant) (budding yeast) (UniProt P40026).
T5 sequence: T4 sequence with S326W
In words: pull-down.

Assay [6] has as its target T6, GST-tagged Nse6-Y209A, I281W (region III mutant) (budding yeast) (UniProt P40026).
T6 sequence: T4 sequence with Y209A, I281W
In words: pull-down.

Assay [7] has as its target SUMO, yeast two-hybrid fusion [SUMO: Q12306]. In words: two-hybrid.
For assay [8], the target named is T7, Nse6, yeast two-hybrid fusion (budding yeast) (UniProt P40026).
T7 sequence: T4 sequence
In words: two-hybrid.

In assay [9] the target is T8, Nse3 (subunit of the budding yeast Smc5/6 holo-complex) (budding yeast), Q05541.
T8 chain: T3 sequence
In words: cross-linking. The settings on record: remark: other sources report otherwise.

Assay [10] addresses T9, Nse4 (subunit of the budding yeast Smc5/6 holo-complex) (budding yeast), P43124.
T9 chain: T2 sequence
In words: cross-linking. The conditions noted are these: remark: other sources report otherwise.

Assay [11] concerns the target T10, Nse1 (subunit of the budding yeast Smc5/6 holo-complex) (budding yeast), Q07913.
T10 chain: T1 sequence
The experiment in a line: cross-linking. The conditions noted are these: remark: other sources report otherwise.

B1: Nse6 (subunit of the budding yeast Smc5/6 holo-complex) (protein, UniProt P40026 1-464)
chain: T4 sequence
On to B1, for which the binding entry in assay [1], in assay [2] and in assay [3] was “no binding” each time.

B2: His6-tagged Nse5, wild type (protein, UniProt Q03718 1-556)
chain: MDGALINSVLYVSPRNGAHYFVELTEKHLLAFEMLNSMCLLENYDHVLLFLECQFGKSHNLAVIPFDIILVLFTLSTLSEYYKEPILRANDPYNTSRETLSRRALKLLQKYLAILKEFDSEQYNLYDLELLRCQFFLAIDTLTPKKQKWGFDRFRRTKSESGVTYRQNASVDPELDQAKTFKNPYRSYISCLEQRNTILGNRLLNLKLNEPGEFINMILWTLSNSLQESTPLFLSSHEIWMPLLEILIDLFSCRQDYFIQHEVAQNVSKSLFVQRLSESPLAVFFESLNTRNFANRFSEYVFLNCDYKLPSDNYATPVHPVYNGENTIVDTYIPTIKCSPLYKSQKSLALRRKLIGSCFKLLLRVPDGHRLITPRIVADDVIQGISRTLASFNDILQFKKFFMTENLSQESYFIPLLAEGTLSEILKDTQECVVILTLVENLSDGVSFCNEVIGLVKSKCFAFTEQCSQASYEEAVLNIEKCDVCLLVLLRYLLHLIGTEAILDAKEQLEMLHAIEKNDSGRRQWAKALNLGNDPPLLYPIVSQMFGVHDKSVIIE
For B2, the binding entry in assay [4], in [5] and in assay [6] was “binds” each time.

B3: Nse5, wild type, yeast two-hybrid fusion (protein, UniProt Q03718 1-556)
chain: B2 chain
On to B3, for which the binding result in assay [7] and in [8] was “binds” each time.

B4: His6-tagged Nse5-Q109A (region II mutant) (protein, UniProt Q03718 1-556)
chain: B2 chain with Q109A
Take B4: the binding result in assay [4] and in [5] was “binds” each time.

B5: His6-tagged Nse5-K337, S339W (region III mutant) (protein, UniProt Q03718 1-556)
chain: B2 chain with K337W, S339W
With B5, the binding result in [4] and in assay [6] was “binds” each time.

B6: Nse2 SUMO ligase (subunit of the budding yeast Smc5/6 holo-complex), P38632 1-267 (protein)
chain: MALNDNPIPKSVPLHPKSGKYFHNLHARDLSNIYQQCYKQIDETINQLVDSTSPSTIGIEEQVADITSTYKLLSTYESESNSFDEHIKDLKKNFKQSSDACPQIDLSTWDKYRTGELTAPKLSELYLNMPTPEPATMVNNTDTLKILKVLPYIWNDPTCVIPDLQNPADEDDLQIEGGKIELTCPITCKPYEAPLISRKCNHVFDRDGIQNYLQGYTTRDCPQAACSQVVSMRDFVRDPIMELRCKIAKMKESQEQDKRSSQAIDVL
On to B6, for which the binding result in assay [9], in assay [10] and in [11] was “no binding” each time.
